Laboratory results published in PubChem BioAssay AID540336 (Broad Institute, 2011).
The campaign covered roughly 330,000 compounds. About 520 (0.16%) were called active. Inconclusive means that the source gave no clear call. Such entries were picked first, then a sample of the others.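 The calls were made as follows: active = inhibition of at least 50% in every replicate; inconclusive = best replicate reaches 50% inhibition but some replicates fall short; inactive = the rest.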 Some compounds were tested as several samples or in several runs, with calls that do not always agree.

Amino acid sequences for entries named in this document (tags omitted).
UniProt Q5AAJ8, whole entry, looked up: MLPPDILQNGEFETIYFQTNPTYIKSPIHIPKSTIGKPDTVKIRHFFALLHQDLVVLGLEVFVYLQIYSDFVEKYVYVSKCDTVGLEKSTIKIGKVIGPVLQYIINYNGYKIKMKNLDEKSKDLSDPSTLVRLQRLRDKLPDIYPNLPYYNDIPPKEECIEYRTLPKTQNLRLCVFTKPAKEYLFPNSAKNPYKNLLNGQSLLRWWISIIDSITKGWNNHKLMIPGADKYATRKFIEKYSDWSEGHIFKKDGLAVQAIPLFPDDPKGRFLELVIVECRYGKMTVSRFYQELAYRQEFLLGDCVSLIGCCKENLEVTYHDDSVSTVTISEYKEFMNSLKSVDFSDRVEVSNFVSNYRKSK

What follows are compounds tested against Histone acetyltransferase RTT109 (Candida albicans (strain SC5314 / ATCC MYA-2876)) (UniProt Q5AAJ8) (assay: Rtt109-Vps75 histone acetyltransferase blockade – biochemical, ThioGlo CoA-SH fluorescence, plate reader, primary screen (AID 540336)). Conditions: purified Rtt109/Vps75, ThioGlo CoA-SH fluorescence, 4 h; at 34.9 µM; stronger effect = higher value.

inhibition, active:
COc1ccc(OC)c(C2CC(=O)N3CN(c4ccc(C)c(Cl)c4)CSC3=C2C#N)c1 (stereo unspecified) 91.1%
COc1cc2nc(NCCCN3CCN(C)CC3)n3nc(-c4ccccc4)nc3c2cc1OC 82.2%
Cc1cc(C)cc(NC(=O)NC(C)C2CCCO2)c1 (stereo unspecified) 56.4%
O=C(Nc1cccc(-c2nc3cccnc3s2)c1)c1cccnc1Cl 60.3%
CCCCNS(=O)(=O)c1ccc(NC(=O)Cc2ccccc2[N+](=O)[O-])cc1 53%
COc1ccc(/C=C/C(=O)O)cc1S(=O)(=O)NCc1ccco1 50.2%
C[N+]1(CC(O)COc2ccccc2)CCN(C(=O)c2ccc([N+](=O)[O-])cc2)CC1 (stereo unspecified) 52.5%
CC(=O)OCCNc1cc(Sc2nc3ccccc3[nH]2)c2nonc2c1[N+](=O)[O-] 70.2%
O=C(O)CSCC(=O)Nc1cc(C(F)(F)F)ccc1Cl 65.6%
COCC(=O)OCC(=O)Nc1cc(C)c(C)cc1[N+](=O)[O-] 50.1%
Oc1cc(O)c(CN2CCOCC2)cc1CN1CCOCC1 101%
CN1CCc2cccc3c2[C@@H]1Cc1ccc(O)c(O)c1-3 60.1%
COc1cccc(C(=O)NNC(=O)CCC(=O)O)c1 54.1%
O=C(O)C(Cc1ccccc1)N1C(=O)/C(=C/c2cccs2)SC1=S (stereo unspecified) 55.8%
CCCCCCCCCCOC(=O)Cn1c(COc2ccc(OC)cc2)[n+](C)c2ccccc21 83.9%
CCCC(=O)N(c1ccc2oc(=O)sc2c1)S(=O)(=O)c1cccs1 124%
CC[n+]1c(C)sc2c(C)cc(C)cc21 114%
Cc1cc(CN2C(=O)c3ccccc3C2=O)no1 57.5%
Nc1ccccc1SC(C[N+](=O)[O-])c1ccccc1 (stereo unspecified) 108%

inhibition, inconclusive:
Cc1[nH]c2ccccc2c1C(=O)NS(=O)(=O)Nc1ccc(Cl)cc1 38.3%
CCN(Cc1ccc(OC)c(COC)c1)CC1CCCN(CCc2cccc(OC)c2)C1 (stereo unspecified) 10.6%
Cc1ccc(N=C2S/C(=C\c3cn(CC(=O)O)c4ccccc34)C(=O)N2C)cc1 64.5%
Cc1ccc(S(=O)(=O)N2CCOCC2)cc1C(=O)NC1CCCC(C)C1C (stereo unspecified) 23.6%
CC(=O)N1CC[n+]2c(-c3ccc(Cl)cc3Cl)csc21 46.4%
C1CCCCCC(NCCN2CCNCC2)CCCCC1 37.2%
CCOC(=O)c1csc(NC(=O)c2ccc(S(=O)(=O)N3CCCC3)cc2)n1 34.7%
COc1ccc(/C=C2/C(=O)OCc3cc(OC)c(OC)cc32)c(OC)c1 42.1%
Cc1nn(CC(=O)Nc2cc(S(=O)(=O)N3CCOCC3)ccc2Cl)c(C)c1[N+](=O)[O-] 15%
O=C(c1ccc(CNS(=O)(=O)c2ccc(Br)cc2)cc1)N1CCCC1 33.6%
Clc1ccc(-c2noc(CSc3nnc(Cc4cccs4)n3-c3ccccc3)n2)cc1 32.2%
CC(C)c1nnc(NC(=O)c2nc(S(=O)(=O)Cc3ccccc3)ncc2Cl)s1 33.1%
COc1ccc(C[C@H]2CN3C(=NC[C@H]3Cc3ccccc3)N2CCNC(=O)c2ccc(C)c(Br)c2)cc1 38.2%
CCC1CCCCN1S(=O)(=O)c1ccc(C(=O)N(CCCN(C)C)c2nc3cc4c(cc3s2)OCO4)cc1 (stereo unspecified) 55.9%
CN(C)CCCN(C(=O)c1ccc(C(=O)c2ccccc2)cc1)c1nc2cc3c(cc2s1)OCO3 48.5%
Cc1ccccc1CN1C(=O)c2ccccc2Sc2ccc(C(=O)O)cc21 34.2%
O=c1oc2c3c4c(cc2s1)CCCN4CCC3 45.5%
Cc1c(CCC(=O)O)c(=O)n2c([nH]c3ccccc32)c1C#N 141%
CC1CCCN(S(=O)(=O)c2ccc(NC(=O)Cc3ccc(S(=O)(=O)N4CCOCC4)s3)cc2)C1 (stereo unspecified) 31.5%
CCOC(=O)c1c(C(C)(C)C)oc2ccc(O)cc12 30.1%
O=S(=O)(/N=S1/CC=CCN1S(=O)(=O)c1ccccc1)c1ccccc1 (stereo unspecified) 81.3%
CC(C)(C)c1cc(-c2nc(N)nc(N)n2)c(O)c(C(C)(C)C)c1 12.7%
Cc1ccc(NC(=O)CN2C(=O)NC3(CCc4ccccc43)C2=O)cc1S(=O)(=O)N1CCCCC1 (stereo unspecified) 40.4%
CN(C(=S)NC(=O)C1CC1)c1ccc(O)cc1 20.8%
CCN1/C(=C/c2ccc3cc(C)ccc3[n+]2CC)Sc2ccccc21 58.4%
O=C(Cn1cc[n+](CC(=O)c2ccccc2)c1)c1ccccc1 19.7%
Cc1ccc(C2=NN=C(NC(=O)CSc3nncn3C)SC2)cc1 61.5%
O=S(=O)(Nc1ccc(O)c2ccccc12)c1ccc(F)cc1 34.1%
COCCN=c1scc(-c2ccccc2)n1/N=C/c1c[nH]c2ccccc12 27.3%
COc1ccc(Cn2cnc([N+](=O)[O-])c2)cc1[N+](=O)[O-] 35.2%
CCOc1cc(-c2sc(Nc3ccc(CC)cc3)n[n+]2-c2ccccc2)ccc1OC 22.3%
CC(C)(C)c1ccc(Cn2nnc3c(=O)[nH]c(C4CCCN(C(=O)Cc5cccs5)C4)nc32)cc1 (stereo unspecified) 33.8%
CCc1ccc(C2CC(=O)N3CN(c4ccccc4)CSC3=C2C#N)cc1 (stereo unspecified) 29.7%
O=C(CCCN1C(=O)/C(=C\c2ccco2)SC1=S)Nc1ccc(O)cc1C(=O)O 64.9%
Cc1cc(CNC(=O)COc2ccccc2)c2ccccc2n1 26.8%
Cc1cccc(OCCNc2cc(N3CCN(CCO)CC3)ccc2[N+](=O)[O-])c1 37.2%
CCn1ccc(C(=O)Nc2ccccc2Cl)n1 27.5%
COc1ccc(CNC(=O)C2CCN(S(=O)(=O)c3ccccc3)CC2)cc1 30.4%
CCCCCCCCCCCCN1[C@@H](CC(=O)O)c2cc(C(F)(F)F)ccc2S1(=O)=O 57.9%
COc1ccc(N=C2NN=C(c3c(C)[nH]c4ccccc34)CS2)cc1 21.2%
CC(C)Oc1ccc(C(CCN)C2CCCCC2)cc1 (stereo unspecified) 26.2%
Cn1cnnc1SCC(=O)Nc1ccc(S(N)(=O)=O)cc1 32.7%
CCN(CC)S(=O)(=O)c1cccc(C(=O)N/N=C/c2ccc(O)c(O)c2O)c1 59.1%
CCOC(=O)c1ccc(NC(=O)N2CCN(C3CCCCC3)CC2)cc1 24.7%
CC(Sc1nnc(N)s1)C(=O)Nc1ccc2c(c1)OCO2 (stereo unspecified) 21.1%
COc1ccc(CCNC(=O)c2cc3c(=O)n4ccccc4nc3n(C3CCCCC3)c2=N)cc1 31.9%

inhibition, inactive:
Cc1ccc(/C=N/N2C(=O)C3C(C2=O)C2C=CC3C23CC3)o1 (stereo unspecified) 6.13%
Cc1cccc(Oc2ccc3c(c2)cc(C(=O)O)n3C)c1 -2.15%
COc1ccc(Cc2nnc(NC(=O)c3ccccc3F)s2)cc1 -2.3%
O=C(O)/C=C/c1ccc(O)c(O)c1 -0.121%
COc1ccccc1N(CC(O)Cn1ccnc1C)S(=O)(=O)c1ccc(C)cc1 (stereo unspecified) 12.5%
CCOC(=O)c1ccc(-c2c(C(=O)OCC)oc3cc(O)c(CC)cc3c2=O)o1 -7.67%
CCOc1ccccc1NC(=O)c1ccc(OCC(=O)N2CCOCC2)c(OC)c1 4%
COc1ccc(/C=c2/sc3n(c2=O)C(c2ccccc2OC)C2=C(N=3)c3ccccc3CC2)cc1O (stereo unspecified) 4.85%
O=C(Nc1ccc(F)cc1F)Nc1ccc(F)cc1F 12%
COCC1CCN(C(=O)C2CCN(c3nc(-c4ccccc4)nc4c3CCC4)CC2)C1 (stereo unspecified) -6.29%
Cc1ccc(NC(=O)c2noc3c2CCc2ccccc2-3)cc1 -3.7%
CCCNC(=O)CS(=O)Cc1nc(-c2ccccc2C)oc1C (stereo unspecified) 5.26%
Cc1cc(C)c(NC(=O)c2ccccc2C(=O)c2ccccc2)c(C)c1 -3.09%
Cc1c(N=Nc2ccc(O)cc2)c(=O)n(-c2ccccc2)n1C -3.59%
Cc1ccc(/C=N/NC(=O)c2nnn(-c3nonc3N)c2CSc2ccccc2)s1 4.31%
O=C(Nc1ccc(Cl)c(Cl)c1)Nc1ccccc1NS(=O)(=O)c1cccs1 -6.55%
Cc1cccc(C)c1OCCn1nnc2ccccc21 3.98%
CN(CC(=O)Nc1ccc(F)cc1[N+](=O)[O-])C1CCS(=O)(=O)C1 (stereo unspecified) -8.98%
CCN1CCN(C(=O)CCn2c(=O)c3cccn3c3cccnc32)CC1 -7.68%
CNC(=O)CSc1nc2nn(-c3ccccc3)c(=O)c-2c2n1CCCCC2 16.2%
Cc1nn(C)cc1S(=O)(=O)Nc1ccc(C(F)(F)F)cc1 -1.41%
Cc1ccc(NC(=O)CSC2=Nc3ccccc3C3CC=NN23)c(C)c1 (stereo unspecified) -2.27%
COc1ccc(Cn2c(=O)oc3ccc(C)cc32)cc1OC 5.38%
O=C1CCCC/C1=C\Nc1ccc(O)cc1 7.6%
CCCN1CCC(=O)N(CCO)CC1 2.38%
Cn1c(-c2ccc3ccccc3n2)[n+](C)c2ccccc21 -4.78%

3 entries from above, ordered by SMILES length, smallest number first.
inhibition, inactive:
CCCN1CCC(=O)N(CCO)CC1 2.38%
CCCNC(=O)CS(=O)Cc1nc(-c2ccccc2C)oc1C (stereo unspecified) 5.26%
CN(CC(=O)Nc1ccc(F)cc1[N+](=O)[O-])C1CCS(=O)(=O)C1 (stereo unspecified) -8.98%
